Results from the supplement of paper PMC3334620.
In all, about 33,000 sequences were measured (“E-score (-0.5 to 0.5)”: median about -0.0014, highest 2% from about 0.25 on). Some of the results follow.

The sequences below were run against T1, Cad1 (UniProt P24813) (assay: PBM E-score (8-mer binding enrichment) (E-score (-0.5 to 0.5)); higher = stronger / more preferred TF binding). Settings: protein concentration: 100 nM; construct: GST-full length.
T1 sequence: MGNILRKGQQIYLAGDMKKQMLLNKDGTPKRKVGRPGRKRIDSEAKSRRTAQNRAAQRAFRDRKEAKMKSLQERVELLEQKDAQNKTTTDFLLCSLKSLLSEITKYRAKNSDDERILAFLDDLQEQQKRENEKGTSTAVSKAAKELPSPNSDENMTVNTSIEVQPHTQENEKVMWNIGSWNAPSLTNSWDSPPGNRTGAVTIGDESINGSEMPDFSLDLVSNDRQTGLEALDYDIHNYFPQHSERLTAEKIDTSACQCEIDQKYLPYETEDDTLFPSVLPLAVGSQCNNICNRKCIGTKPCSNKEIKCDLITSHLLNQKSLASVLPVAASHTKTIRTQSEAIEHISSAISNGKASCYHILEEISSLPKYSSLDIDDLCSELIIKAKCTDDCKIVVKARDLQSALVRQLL
Procedure, shortened: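 The E-score, a modified Wilcoxon-Mann-Whitney statistic, was computed by the Universal PBM Analysis Suite for every ungapped eight-base word pooled with its reverse complement. Scans behind it were normalised with masliner after bound GST-tagged yeast transcription factors were detected with fluorescent anti-GST. The proteins, at about 100-200 nM, had been applied to universal all-10-mer Agilent arrays made double-stranded by primer extension.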

Sequence	PBM E-score
CCAATTCC	0.215
ATTATCGC	0.282
CGGAAAAA	0.125
AACTGTGG	0.105
AGGCAGGC	-0.0905
ATGGACAA	0.141
AGGGTATG	-0.017
AGAGACTC	-0.143
CGAGTGCG	0.208
CTAGAGTC	-0.369
ATGTATCG	0.138
ATCAGGTG	0.0374
GTGTAAAC	-0.127
AAGGCATC	-0.128
CTAAAGCA	0.135
ACACTGCA	0.0657
ACGTTTGG	-0.184
ACCGGGGA	-0.293
CTTCTTCC	-0.15
AGCCAACC	0.031
AAGACGAC	0.105
TGAGATCA	0.00423
AAAAGGCA	0.0553
AAAGTGCT	-0.0381
AGCACCGA	0.162

Sequence	PBM E-score
ATACTGGA	0.0235
CTGACAAA	0.444
AAAGGATT	-0.0918
CAACCACA	0.071
CGCCCCGC	0.0242
ACATAGAC	-0.133
ACACATCC	0.126
GACTGCAA	-0.0371
AAGGCAAT	-0.00865
ATAGCCTG	-0.128
AAGCCCAG	-0.0526
GGTGTTGA	-0.0825
AACGTACT	0.142
TCCAATAA	0.2
CCCCGGGG	-0.357
ACTACTTG	-0.0543
ATTTCTAC	0.029
AACTTAAC	0.218
GCACGTGA	0.0273
GAAGCACA	0.0216
CAATCCCG	0.0451
ATACCGTG	0.0614
GCGTGTCC	-0.061
ACACATGT	0.173
CATTCAGA	0.107

Sequence	PBM E-score
ATCCGCTA	0.113
ACCTGGGC	-0.403
GGTTGAAC	0.094
CATTAACG	0.156
AAGAATCA	0.0916
ATATCACG	0.0337
CGCATAAA	0.0998
ATTAAGAC	0.0457
CCTGATTC	0.0985
TGTACACA	0.256
ACCCCGGA	-0.145
GCACTCAA	-0.0879
ATCCGCTG	-0.0415
AACTTCCG	-0.0611
GAAAGAGA	-0.0583
ACCGTCCC	-0.13
CTTCTAGA	-0.106
ACTTTAAT	0.138
ATGCAGTA	-0.0106
AACAGAAT	-0.0253
ACGGAGCG	-0.00118
GTATTCAA	0.14
AAGCACCT	0.0701
GCATAAAA	0.119
CCGGGTGA	-0.0555

Sequence	PBM E-score
AAGTGCGT	-0.0193
CTCGGCAG	0.136
CACCTGCG	0.0286
ATATTGGC	0.0348
ACTCGTGA	-0.128
CGTCCCGC	0.13
AACGTTCG	0.0404
ATGTGAGC	-0.107
TCAGGTCA	-0.0909
AAGATAGC	0.0234
AAGCTTTG	0.0825
GACAGTCA	-0.11
TAGTTTCA	0.222
GTAAATAA	0.11
ATATGCCG	0.187
AGTAGCTC	-0.102
ACTGGACT	0.0311
GGAACTCC	0.052
TACATGAA	-0.0238
CACCTCGG	-0.0993
CACAGACG	0.0172
AGGACATA	0.134
GTCCTGTA	0.0962
GACATAAA	0.227
GTATCCTA	-0.035

Sequence	PBM E-score
CTAAATCA	0.067
AGAAATAG	0.0428
GATACACA	0.0908
CATTTTGG	-0.0199
ACACTGCT	-0.0404
CTCTCCGA	-0.15
GTACCCGA	-0.173
TGCCAGAA	0.00548
GAGAAGAA	-0.0317
ACTGAGAG	-0.0789
AGCGATTG	0.0693
GGGTCTGA	-0.115
CCTACATA	-0.1
AGTCGAAA	-0.116
AGGTTCTG	0.0895
GTGGCATA	-0.127
ACTTCTAA	-0.143
GCCCGTCC	-0.166
TACTTGCA	0.0513
ACGGTACG	-0.0103
CACATACA	-0.0123
ATTTTGGG	0.054
CAAACTTA	0.0865
CTAAACCC	-0.0485
AACTACCA	-0.0966

Sequence	PBM E-score
GGTCGTCA	-0.0613
CACCACGG	-0.291
AAGCTTAA	0.174
GCTCTGCA	-0.185
CCAGTTTC	-0.155
TTCTCAAA	0.0876
CCACGGAG	0.0348
AAGCTAAG	-0.253
TCCAAGAA	-0.0134
CACCCAGG	-0.285
ATTAGGTC	0.186
AGCACTTA	-0.0215
CTACGTTA	-0.0861
TAGTACTA	-0.0169
GTTGTTCA	0.0319
ACCGCCGG	-0.176
GAATTAAA	-0.0332
AGCATGCT	0.0553
CGACACAG	0.0947
CCCAACAA	-0.083
ATTATTAG	0.136
GGTCTCAA	-0.0801
GCCTGTGA	-0.136
GTCGTCAC	-0.00336
ACGGTGAA	0.103

Sequence	PBM E-score
CTAGATCC	-0.0065
CCTAAACC	-0.00061
ACTACAGT	0.0593
CAAGCCTG	-0.117
GCGTTCAC	-0.0792
ATGTTGCC	-0.118
GAGTCTGA	-0.0632
CATAGACA	0.032
ATTTGTAC	0.119
TCATGTAA	0.171
AAATGCGT	0.105
AGCGGCCC	-0.3
GAAACCTA	-0.116
AAGATTAA	0.153
GACCCTTA	-0.0789
CATTCCTC	-0.245
ATGCTTAA	0.0324
CATCACGC	-0.0512
AAGCTACA	0.0773
TCCCGCCA	-0.0694
GGCTTATA	-0.029
ACCGAGTA	0.102
